The test deals with AnOYE2 (Aspergillus niger CBS 513.88) (UniProt A5AB78). The test is described as follows: co-purification on Ni-NTA (IMAC); His6-tagged enzyme purified at a low temperature from the soluble fraction of E. coli BL21 (DE3) Arctic cells; Cpn60 found in the preparation.

Chains of the proteins cited; added tags and fusions are not shown. Lines headed by an entry give the natural chain unless they say otherwise; changes in a name come on top.
UniProt A5AB78: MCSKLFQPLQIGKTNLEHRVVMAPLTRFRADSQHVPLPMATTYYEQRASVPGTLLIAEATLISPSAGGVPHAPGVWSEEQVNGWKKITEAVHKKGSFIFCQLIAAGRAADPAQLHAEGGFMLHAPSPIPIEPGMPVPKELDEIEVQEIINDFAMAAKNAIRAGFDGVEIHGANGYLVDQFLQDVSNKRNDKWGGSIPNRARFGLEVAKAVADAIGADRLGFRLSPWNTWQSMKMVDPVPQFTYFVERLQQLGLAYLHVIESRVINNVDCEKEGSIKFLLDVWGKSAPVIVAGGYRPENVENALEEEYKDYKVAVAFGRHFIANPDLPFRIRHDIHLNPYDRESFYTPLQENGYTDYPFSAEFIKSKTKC
UniProt Q8KM30: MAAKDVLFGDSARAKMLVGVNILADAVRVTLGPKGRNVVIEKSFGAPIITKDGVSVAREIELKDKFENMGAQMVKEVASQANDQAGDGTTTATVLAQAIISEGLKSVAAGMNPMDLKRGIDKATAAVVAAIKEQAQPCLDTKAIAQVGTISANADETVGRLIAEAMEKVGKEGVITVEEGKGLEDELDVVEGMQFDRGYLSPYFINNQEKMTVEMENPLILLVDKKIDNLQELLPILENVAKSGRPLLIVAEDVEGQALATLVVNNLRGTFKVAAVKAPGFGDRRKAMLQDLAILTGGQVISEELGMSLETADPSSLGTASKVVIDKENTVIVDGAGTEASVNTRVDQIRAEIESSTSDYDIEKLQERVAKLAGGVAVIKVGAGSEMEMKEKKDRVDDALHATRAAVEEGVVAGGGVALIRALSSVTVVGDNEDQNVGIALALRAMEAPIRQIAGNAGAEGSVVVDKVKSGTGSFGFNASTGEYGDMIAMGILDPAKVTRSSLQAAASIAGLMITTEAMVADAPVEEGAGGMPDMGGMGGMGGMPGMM

These are yes or no findings as the source states them, for the method shown. In cells and extracts the contact can be indirect. A result given as binding can be weak or reduced; the word gives no strength.

1 substance from publication PMC8954901, “The Family Keeps on Growing: Four Novel Fungal OYEs Characterized” (International Journal of Molecular Sciences, 2022) can be followed below.

Turning to “chaperonin Cpn60 (from UniProt Q8KM30 1-548)”, the binding result was “binds”.
